Measurements published in publication PMC8257253.
No constants are given. Whether binding was seen depends on the method and setting. Binding seen in cells or lysates may run through a third protein. Some entries that bind do so weakly or less than the wild type.

Chains of the proteins cited; added tags and fusions are not shown. Residues count along the entry.
UniProt Q810U4, residues 30-1256: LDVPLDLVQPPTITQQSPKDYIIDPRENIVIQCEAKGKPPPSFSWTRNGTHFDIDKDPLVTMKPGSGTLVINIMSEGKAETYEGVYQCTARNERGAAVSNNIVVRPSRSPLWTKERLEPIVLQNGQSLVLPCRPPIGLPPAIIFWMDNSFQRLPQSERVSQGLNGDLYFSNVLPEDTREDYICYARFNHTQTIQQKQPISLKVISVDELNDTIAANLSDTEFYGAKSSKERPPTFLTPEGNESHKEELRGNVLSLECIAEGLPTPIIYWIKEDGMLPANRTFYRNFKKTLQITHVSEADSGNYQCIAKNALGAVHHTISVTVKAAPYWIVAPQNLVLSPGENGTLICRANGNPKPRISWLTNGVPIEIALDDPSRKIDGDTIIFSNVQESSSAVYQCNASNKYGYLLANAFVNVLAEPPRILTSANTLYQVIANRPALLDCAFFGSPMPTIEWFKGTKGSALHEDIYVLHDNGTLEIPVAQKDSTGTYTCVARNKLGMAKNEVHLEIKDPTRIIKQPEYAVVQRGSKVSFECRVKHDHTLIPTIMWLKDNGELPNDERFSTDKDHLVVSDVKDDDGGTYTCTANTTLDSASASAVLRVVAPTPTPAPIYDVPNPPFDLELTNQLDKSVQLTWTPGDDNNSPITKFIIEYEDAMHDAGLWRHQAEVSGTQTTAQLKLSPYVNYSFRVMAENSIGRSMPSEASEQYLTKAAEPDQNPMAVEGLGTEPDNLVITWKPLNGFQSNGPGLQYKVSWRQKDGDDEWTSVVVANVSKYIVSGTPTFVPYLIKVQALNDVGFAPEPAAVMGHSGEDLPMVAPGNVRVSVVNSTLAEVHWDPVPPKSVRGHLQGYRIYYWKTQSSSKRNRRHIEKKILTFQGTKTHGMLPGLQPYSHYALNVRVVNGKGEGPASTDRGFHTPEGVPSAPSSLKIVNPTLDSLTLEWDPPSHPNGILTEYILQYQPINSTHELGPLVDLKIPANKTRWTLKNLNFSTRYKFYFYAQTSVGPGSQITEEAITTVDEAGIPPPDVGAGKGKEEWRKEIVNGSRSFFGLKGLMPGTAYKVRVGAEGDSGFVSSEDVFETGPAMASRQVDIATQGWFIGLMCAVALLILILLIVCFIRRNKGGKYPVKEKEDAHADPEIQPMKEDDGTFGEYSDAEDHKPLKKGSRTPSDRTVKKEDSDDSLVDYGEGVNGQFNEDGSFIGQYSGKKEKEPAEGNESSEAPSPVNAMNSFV
UniProt Q80UG2, residues 24-1893: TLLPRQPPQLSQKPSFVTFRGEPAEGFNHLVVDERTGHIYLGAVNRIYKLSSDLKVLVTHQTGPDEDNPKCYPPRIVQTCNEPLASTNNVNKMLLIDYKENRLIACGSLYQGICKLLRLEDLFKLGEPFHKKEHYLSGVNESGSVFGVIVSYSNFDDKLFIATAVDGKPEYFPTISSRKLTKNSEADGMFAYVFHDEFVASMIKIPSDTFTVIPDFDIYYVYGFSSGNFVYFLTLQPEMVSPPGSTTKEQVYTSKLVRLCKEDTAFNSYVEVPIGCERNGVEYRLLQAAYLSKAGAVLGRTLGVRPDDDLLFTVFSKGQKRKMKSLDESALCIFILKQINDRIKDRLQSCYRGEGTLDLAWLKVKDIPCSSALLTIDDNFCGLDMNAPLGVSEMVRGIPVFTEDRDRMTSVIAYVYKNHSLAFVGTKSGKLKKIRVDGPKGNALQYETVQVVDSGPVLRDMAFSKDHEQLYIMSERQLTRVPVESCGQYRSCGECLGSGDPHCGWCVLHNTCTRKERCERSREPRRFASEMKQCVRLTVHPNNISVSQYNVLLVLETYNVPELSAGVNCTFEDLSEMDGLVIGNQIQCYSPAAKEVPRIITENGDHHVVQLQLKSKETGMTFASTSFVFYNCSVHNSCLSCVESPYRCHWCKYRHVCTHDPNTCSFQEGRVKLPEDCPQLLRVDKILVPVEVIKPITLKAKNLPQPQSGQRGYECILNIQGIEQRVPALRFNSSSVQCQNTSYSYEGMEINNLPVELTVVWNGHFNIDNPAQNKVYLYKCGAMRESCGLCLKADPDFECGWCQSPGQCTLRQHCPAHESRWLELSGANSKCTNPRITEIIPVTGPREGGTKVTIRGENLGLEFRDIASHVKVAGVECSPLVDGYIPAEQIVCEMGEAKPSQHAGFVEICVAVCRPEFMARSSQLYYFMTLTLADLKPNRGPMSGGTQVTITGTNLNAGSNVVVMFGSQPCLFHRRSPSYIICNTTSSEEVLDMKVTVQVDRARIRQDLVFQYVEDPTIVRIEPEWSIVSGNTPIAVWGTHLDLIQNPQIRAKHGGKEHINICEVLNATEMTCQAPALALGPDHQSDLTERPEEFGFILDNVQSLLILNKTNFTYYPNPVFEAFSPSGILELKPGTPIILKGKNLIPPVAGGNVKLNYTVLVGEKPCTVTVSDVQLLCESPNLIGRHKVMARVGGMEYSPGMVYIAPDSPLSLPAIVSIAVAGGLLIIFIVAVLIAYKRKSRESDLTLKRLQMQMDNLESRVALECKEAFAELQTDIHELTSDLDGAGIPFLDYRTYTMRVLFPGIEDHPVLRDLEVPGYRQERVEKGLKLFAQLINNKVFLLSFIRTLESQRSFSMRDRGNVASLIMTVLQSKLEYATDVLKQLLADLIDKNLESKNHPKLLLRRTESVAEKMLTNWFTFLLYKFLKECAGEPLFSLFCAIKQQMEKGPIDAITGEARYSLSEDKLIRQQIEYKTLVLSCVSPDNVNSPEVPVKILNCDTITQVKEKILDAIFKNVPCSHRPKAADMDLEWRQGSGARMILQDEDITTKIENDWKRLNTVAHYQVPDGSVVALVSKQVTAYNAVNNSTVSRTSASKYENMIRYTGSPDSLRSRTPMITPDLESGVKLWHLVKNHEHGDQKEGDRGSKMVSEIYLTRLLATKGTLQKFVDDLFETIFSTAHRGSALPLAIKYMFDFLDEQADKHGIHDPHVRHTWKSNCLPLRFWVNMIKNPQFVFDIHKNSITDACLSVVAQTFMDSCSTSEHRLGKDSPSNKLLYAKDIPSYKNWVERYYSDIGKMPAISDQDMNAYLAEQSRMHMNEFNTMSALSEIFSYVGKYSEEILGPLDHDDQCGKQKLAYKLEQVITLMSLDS
UniProt Q02357: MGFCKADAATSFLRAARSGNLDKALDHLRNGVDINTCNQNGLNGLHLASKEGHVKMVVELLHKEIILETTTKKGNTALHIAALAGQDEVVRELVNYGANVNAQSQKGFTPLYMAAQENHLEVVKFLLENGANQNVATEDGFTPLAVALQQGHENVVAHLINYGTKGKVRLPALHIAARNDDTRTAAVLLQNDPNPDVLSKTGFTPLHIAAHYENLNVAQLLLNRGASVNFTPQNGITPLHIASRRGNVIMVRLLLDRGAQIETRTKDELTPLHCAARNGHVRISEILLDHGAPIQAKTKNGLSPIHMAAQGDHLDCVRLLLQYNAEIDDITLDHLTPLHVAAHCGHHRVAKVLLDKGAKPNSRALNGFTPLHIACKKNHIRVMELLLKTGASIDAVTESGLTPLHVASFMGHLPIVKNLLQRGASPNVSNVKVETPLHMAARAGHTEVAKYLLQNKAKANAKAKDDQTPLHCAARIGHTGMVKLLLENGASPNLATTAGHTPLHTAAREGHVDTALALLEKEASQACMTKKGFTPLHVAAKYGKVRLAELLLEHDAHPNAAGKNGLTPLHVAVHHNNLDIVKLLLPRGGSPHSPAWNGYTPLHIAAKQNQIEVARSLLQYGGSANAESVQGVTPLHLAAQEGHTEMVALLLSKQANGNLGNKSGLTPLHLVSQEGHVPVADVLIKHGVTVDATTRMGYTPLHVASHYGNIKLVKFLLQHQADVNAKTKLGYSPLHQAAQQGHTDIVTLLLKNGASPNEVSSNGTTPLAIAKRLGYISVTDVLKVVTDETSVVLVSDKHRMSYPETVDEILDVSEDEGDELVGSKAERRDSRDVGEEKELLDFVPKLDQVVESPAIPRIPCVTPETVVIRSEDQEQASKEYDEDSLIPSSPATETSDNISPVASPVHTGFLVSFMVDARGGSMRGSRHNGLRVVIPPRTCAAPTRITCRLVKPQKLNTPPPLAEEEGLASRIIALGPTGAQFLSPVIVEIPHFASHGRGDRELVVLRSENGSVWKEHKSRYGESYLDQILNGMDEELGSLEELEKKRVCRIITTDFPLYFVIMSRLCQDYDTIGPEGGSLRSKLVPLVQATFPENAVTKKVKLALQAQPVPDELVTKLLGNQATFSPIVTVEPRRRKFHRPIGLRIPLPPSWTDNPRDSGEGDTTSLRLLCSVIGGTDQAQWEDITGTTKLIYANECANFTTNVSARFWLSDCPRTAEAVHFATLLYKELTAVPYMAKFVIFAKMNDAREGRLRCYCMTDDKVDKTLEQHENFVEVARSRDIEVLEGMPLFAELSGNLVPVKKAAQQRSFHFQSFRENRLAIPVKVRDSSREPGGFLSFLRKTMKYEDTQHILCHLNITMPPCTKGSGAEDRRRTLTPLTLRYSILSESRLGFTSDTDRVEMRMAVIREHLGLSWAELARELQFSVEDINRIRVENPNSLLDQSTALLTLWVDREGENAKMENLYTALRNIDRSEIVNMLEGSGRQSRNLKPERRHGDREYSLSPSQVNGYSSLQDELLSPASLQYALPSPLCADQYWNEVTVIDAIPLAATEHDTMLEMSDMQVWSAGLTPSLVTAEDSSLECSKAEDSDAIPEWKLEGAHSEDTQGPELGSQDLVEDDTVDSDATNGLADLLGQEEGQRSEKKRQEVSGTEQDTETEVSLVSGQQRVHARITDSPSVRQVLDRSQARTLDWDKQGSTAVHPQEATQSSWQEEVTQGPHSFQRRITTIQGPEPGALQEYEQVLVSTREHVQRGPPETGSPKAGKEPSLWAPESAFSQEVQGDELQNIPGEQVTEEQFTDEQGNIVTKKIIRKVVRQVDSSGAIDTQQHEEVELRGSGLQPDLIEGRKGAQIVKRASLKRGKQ

Key:
Test in all cases: co-IP; mouse brain homogenate solubilised with 1% Triton X-100; lysate 1 mg/ml in 1% Triton X-100, 20 mM Tris-HCl pH 8.0, 10 mM EDTA, 150 mM NaCl, 10 mM NaN3; antibodies overnight at 4 °C, Protein A or G agarose, seven washes, immunoblot; IgG as control
[1] = biological target: NrCAM (mouse (endogenous in mouse brain)) (UniProt Q810U4)
[2] = biological target: Neuropilin-1 (mouse (endogenous in mouse brain)) (UniProt P97333)
[3] = biological target: β1 spectrin (mouse (endogenous in mouse brain)) (UniProt P15508)
[4] = biological target: PlexinA4 (mouse (endogenous in mouse brain)) (UniProt Q80UG2)
[5] = biological target: Ankyrin-R (mouse (endogenous in mouse brain)) (UniProt Q02357)

Substance: Ankyrin-R (from UniProt Q02357 1-1862)
- binding [1]: binds
- binding [2]: binds
- binding [3]: binds
- binding [4]: binds

Substance: NrCAM (from UniProt Q810U4 30-1256)
- binding [5]: binds

Substance: β1 spectrin (from UniProt P15508 1-2128)
- binding [5]: binds
